No constants are given. Whether binding was seen depends on the method and setting. Some results given as binding are weak or reduced against the parent protein; the word gives no strength.

The chains behind the UniProt entries cited, without tags or fusion partners.
UniProt Q94517: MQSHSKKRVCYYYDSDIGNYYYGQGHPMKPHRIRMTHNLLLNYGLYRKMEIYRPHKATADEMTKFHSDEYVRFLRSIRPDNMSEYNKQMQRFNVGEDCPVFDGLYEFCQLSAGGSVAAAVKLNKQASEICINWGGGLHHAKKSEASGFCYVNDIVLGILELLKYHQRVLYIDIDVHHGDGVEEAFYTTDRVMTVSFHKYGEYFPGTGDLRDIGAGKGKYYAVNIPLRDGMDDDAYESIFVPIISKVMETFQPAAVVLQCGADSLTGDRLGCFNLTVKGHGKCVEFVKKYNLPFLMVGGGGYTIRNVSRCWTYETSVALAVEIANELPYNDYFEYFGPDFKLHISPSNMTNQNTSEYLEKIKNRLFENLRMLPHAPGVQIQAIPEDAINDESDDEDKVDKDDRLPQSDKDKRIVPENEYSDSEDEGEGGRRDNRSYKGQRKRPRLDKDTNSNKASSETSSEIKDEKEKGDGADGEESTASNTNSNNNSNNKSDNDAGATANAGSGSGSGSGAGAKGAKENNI
UniProt Q24572: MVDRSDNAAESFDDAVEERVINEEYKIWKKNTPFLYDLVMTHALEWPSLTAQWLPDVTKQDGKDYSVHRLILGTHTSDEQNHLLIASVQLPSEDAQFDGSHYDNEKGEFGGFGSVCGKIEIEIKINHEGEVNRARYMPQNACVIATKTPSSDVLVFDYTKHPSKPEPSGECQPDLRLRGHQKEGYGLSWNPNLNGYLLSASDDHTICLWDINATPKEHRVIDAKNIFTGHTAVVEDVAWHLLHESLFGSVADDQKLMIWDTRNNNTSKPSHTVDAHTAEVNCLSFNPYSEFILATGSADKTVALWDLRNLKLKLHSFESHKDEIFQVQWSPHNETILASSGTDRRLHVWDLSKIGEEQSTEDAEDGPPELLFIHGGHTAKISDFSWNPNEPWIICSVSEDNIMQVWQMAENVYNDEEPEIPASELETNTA
UniProt O97159: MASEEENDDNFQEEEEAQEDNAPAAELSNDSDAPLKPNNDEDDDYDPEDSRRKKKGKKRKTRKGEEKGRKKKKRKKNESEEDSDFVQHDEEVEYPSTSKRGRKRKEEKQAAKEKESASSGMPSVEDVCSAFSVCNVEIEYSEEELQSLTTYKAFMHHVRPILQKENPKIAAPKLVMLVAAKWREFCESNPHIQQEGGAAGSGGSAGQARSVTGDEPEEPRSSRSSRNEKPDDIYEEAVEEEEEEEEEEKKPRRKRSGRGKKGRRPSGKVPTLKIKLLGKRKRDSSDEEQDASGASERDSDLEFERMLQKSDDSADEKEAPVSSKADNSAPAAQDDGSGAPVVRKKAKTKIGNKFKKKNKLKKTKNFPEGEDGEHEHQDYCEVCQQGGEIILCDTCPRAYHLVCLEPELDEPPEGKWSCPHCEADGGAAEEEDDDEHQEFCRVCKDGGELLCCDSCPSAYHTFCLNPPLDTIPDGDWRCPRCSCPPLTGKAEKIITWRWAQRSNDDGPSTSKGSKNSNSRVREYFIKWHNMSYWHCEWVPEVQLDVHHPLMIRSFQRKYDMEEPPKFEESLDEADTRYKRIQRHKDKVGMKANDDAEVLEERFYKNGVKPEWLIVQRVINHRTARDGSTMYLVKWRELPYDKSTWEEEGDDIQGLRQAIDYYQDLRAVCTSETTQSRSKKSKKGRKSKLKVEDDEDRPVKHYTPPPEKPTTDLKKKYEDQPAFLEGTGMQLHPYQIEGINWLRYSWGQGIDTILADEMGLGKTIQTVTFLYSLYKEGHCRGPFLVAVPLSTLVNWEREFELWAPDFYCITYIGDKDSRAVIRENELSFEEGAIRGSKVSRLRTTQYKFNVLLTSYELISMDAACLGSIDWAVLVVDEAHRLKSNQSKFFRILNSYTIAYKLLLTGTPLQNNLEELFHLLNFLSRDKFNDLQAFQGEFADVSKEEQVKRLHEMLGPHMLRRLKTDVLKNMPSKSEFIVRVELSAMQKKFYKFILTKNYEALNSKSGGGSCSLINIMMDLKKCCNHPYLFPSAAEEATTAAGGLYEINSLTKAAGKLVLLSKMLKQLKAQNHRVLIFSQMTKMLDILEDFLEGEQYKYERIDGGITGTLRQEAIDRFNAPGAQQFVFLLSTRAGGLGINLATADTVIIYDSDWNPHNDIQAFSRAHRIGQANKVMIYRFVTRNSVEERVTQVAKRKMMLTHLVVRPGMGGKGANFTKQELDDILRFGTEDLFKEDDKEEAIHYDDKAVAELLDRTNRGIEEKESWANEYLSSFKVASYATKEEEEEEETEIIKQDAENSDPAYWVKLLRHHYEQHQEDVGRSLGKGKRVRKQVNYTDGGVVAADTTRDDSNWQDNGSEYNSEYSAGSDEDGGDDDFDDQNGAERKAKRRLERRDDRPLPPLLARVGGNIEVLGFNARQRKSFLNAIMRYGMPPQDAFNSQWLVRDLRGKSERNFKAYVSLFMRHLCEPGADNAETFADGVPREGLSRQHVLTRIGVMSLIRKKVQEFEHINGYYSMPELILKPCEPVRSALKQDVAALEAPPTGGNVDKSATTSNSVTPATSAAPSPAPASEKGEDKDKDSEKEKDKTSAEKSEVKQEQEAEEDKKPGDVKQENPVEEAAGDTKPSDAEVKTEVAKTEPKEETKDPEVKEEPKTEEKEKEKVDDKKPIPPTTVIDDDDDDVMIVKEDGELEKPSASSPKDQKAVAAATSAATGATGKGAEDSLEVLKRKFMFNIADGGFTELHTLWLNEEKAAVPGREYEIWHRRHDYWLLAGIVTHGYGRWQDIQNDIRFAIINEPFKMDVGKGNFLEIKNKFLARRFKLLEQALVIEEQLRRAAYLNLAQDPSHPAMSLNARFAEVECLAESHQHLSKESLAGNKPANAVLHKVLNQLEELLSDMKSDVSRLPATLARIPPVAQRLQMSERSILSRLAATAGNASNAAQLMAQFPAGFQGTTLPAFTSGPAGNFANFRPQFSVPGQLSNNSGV

Assay [1] deals with T1, MTA-like (endogenous, embryonic nuclear extract) (Drosophila (endogenous in embryos)) (UniProt Q9VNF6).
T1 sequence: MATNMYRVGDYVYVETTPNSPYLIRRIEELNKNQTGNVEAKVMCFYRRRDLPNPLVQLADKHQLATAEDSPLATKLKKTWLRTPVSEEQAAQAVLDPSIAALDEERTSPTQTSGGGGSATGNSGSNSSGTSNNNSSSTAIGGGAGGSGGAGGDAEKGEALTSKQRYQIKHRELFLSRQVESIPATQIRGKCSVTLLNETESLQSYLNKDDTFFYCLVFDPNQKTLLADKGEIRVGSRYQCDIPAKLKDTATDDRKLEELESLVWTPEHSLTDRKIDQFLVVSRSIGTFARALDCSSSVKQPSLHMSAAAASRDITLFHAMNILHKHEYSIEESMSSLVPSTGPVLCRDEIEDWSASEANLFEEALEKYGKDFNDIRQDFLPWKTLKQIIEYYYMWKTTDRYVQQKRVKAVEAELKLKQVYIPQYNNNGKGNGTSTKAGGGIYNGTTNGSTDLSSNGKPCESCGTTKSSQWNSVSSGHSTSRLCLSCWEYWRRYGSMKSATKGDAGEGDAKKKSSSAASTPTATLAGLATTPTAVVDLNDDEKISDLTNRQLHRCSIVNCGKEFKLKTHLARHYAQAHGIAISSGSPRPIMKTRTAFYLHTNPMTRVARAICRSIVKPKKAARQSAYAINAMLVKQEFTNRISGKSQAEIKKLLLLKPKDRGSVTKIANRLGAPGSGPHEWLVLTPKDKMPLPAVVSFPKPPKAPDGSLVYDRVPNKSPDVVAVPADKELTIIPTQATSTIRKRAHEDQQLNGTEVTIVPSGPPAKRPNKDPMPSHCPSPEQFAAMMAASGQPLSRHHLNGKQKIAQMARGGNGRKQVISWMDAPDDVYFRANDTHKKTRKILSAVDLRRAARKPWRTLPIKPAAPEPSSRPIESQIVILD
The assay can be described thus: SEC; Superose 6 HR 10/30 gel filtration of nuclear extracts from 2-4 h and 0-12 h wild type embryos; 20 mM Hepes pH 7.6, 300 mM KCl; fractions analysed by Western blotting (cofractionation). In general terms: Size exclusion chromatography separates by hydrodynamic size, large species first.

In assay [2] the target is RPD3 (yeast two-hybrid fusion) (Drosophila) (UniProt Q94517). Briefly: two-hybrid; Matchmaker Two-Hybrid system 3, strain AH109; growth on high-stringency plates (SD/-Ade/-His/-Leu/-Trp), confirmed by X-Gal staining of filter-lifted colonies.
The target in assay [3] is p55 (yeast two-hybrid fusion) (Drosophila) (UniProt Q24572). Described as above.
The target in assay [4] is MI-2 (yeast two-hybrid fusion) (Drosophila) (UniProt O97159). The description is as above.

“MI-2 (endogenous, embryonic nuclear extract) (from UniProt O97159 1-1982)”: the binding entry in assay [1] is listed as “binds”. Regarding “RPD3 (yeast two-hybrid fusion) (from UniProt Q94517 1-521)”, the binding entry in assay [2] is given as “no binding”; in assay [3], “binds”. Regarding “p55 (yeast two-hybrid fusion) (from UniProt Q24572 1-430)”, the binding result in assay [4] and in assay [3] was “binds” throughout.
